Literature values in patent US20220288197A1, “METHODS OF TREATING A SUBJECT WITH A CDC42-SPECIFIC INHIBITOR” (Children’s Hospital Medicai Center, priority 2019, published 2022).
For at least one compound, name, drawing or mass did not settle the structure.

Tested on: murine lifespan
Settings: given late in life (75 weeks of age or more), temporary, 90 days for rapamycin; cited from earlier work

In the case of `CO[C@H]1C[C@@H]2CC[C@@H](C)[C@@](O)(O2)C(=O)C(=O)N2CCCC[C@H]2C(=O)O[C@H]([C@H](C)C[C@@H]2CC[C@@H](O)[C@H](OC)C2)CC(=O)[C@H](C)/C=C(\C)[C@@H](O)[C@@H](OC)C(=O)[C@H](C)C[C@H](C)/C=C/C=C/C=C/1C` [rapamycin], the “effects on murine lifespan” value is listed as “significant effects on murine lifespan”.
